{"sequences": {"note": "Amino acid sequences for entries named in this document (tags omitted). A change or cut given only in a name is not applied to a line headed by its entry.", "UniProt P18054": "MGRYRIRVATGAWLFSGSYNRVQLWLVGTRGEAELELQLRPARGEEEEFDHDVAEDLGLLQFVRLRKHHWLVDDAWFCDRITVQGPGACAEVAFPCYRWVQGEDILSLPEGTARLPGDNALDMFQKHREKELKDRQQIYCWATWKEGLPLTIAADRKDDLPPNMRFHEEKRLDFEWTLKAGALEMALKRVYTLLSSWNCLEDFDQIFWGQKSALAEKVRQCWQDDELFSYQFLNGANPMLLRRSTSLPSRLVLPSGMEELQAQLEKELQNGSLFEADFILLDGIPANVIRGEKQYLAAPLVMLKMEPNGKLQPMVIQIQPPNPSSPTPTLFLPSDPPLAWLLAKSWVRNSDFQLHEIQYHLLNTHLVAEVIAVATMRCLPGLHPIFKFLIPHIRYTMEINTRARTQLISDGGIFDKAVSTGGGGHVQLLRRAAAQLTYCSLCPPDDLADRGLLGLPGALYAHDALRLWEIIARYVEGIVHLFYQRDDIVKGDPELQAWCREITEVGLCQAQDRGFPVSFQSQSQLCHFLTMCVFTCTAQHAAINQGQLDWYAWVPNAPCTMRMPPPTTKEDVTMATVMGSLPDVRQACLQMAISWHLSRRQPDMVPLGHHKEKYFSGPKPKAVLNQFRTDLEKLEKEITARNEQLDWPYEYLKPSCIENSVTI"}, "source": "PubChem BioAssay AID1671190", "about": "(National Center for Advancing Translational Sciences (NCATS), 2021)", "note": "The campaign covered roughly 580,000 compounds. About 6,100 (1.1%) were called active. The shares of active, inactive and inconclusive entries below differ from those in the screen. Calls come from the whole dose curve; as a rule, active = well fitted inhibition curve with a large enough effect; inconclusive = small, poorly fitted or top-dose-only effect, or another doubt; inactive = no such curve, though single readings can be large or run the other way. Potencies beside an inconclusive call are fits to weak or partial responses and may not hold up. % is set by controls: 0 for no effect and ±100 for the full control effect; potency is the fitted concentration of half-maximal effect."}
{"biological_target": "Polyunsaturated fatty acid lipoxygenase ALOX12 (Homo sapiens) (UniProt P18054)", "assay": "Primary qHTS assay for inhibitors of human arachidonate 12S-lipoxygenase (ALOX12): Round 2", "details": "purified 12hLO, xylenol orange hydroperoxide absorbance; activity change, negative = inhibition: at 108 µM (top of the series) unless noted", "outline": "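Purified human 12hLO (150 nM final) in 25 mM Hepes, 0.01% Triton X-100, pH 7.0 was preincubated 15 min at room temperature with compound. Then 40 uM arachidonic acid was added, 30 min. Hydroperoxide was read by Fe-XO absorbance ratio 573/405 nm.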"}
{"smiles": "NC(=O)C1CCN(C(=O)COc2ccc3ccccc3c2Br)CC1", "Potency": "inconclusive: 89.1 µM [inhibitor, single point]"}
{"smiles": "O=C(O)CCCCN1C(=O)C=CC1=O", "Potency": "inconclusive: 25.1 µM [inhibitor, single point]"}
{"smiles": "Cc1cc(-c2csc(N)n2)c(C)n1Cc1ccccc1", "Potency": "inconclusive: 44.7 µM [inhibitor, partial curve, poor fit]"}
{"smiles": "O=C(CNc1ccc(Cl)cc1)c1ccc(Br)cc1", "activity change, negative = inhibition": "inactive: -32.6%"}
{"smiles": "NC(=S)Nc1cccc(Br)c1", "Potency": "inconclusive: 56.2 µM [inhibitor, partial curve, poor fit]"}
{"smiles": "CCC(c1nnnn1C1CCCC1)N(Cc1cccs1)Cc1cc2cccc(C)c2[nH]c1=O", "note": "(stereo unspecified)", "Potency": "inconclusive: 70.8 µM [inhibitor, partial curve, poor fit]"}
{"smiles": "COC(=O)c1scc(-c2ccc(C)cc2)c1S(=O)(=O)N1CCN(c2ccccc2F)CC1", "Potency": "inconclusive: 100 µM [inhibitor, partial curve, poor fit]"}
{"smiles": "S=c1[nH]nc(COc2ccc(Cl)cc2)n1-c1ccc(Cl)cc1", "Potency": "inconclusive: 50.1 µM [inhibitor, partial curve, poor fit]"}
{"smiles": "O=C(COC(=O)C12CC3CC(CC(Cl)(C3)C1)C2)Nc1ccc(Cl)cc1[N+](=O)[O-]", "activity change, negative = inhibition": "inactive: 6.74%"}
{"smiles": "COc1cc(N=c2c([N+](=O)[O-])nn(-c3ccc4c(c3)OCCO4)n2O)cc(OC)c1", "activity change, negative = inhibition": "inactive: -6.55%"}
{"smiles": "Cc1cc(Cl)n2ncc(-c3ccccc3)c2n1", "Potency": "inconclusive: 39.8 µM [inhibitor, single point]"}
{"smiles": "COc1ccc(C(=O)Nc2nc3cc(OC)c(OC)cc3c(=O)[nH]2)cc1", "Potency": "inconclusive: 4.47 µM [inhibitor, single point]"}
{"smiles": "Cc1ccc2[nH]c(C(=O)NCc3ccc4c(c3)OCO4)cc2c1", "Potency": "inconclusive: 5.01 µM [inhibitor, full curve, poor fit]"}
{"smiles": "COc1ccc(NC(=O)CSc2nnc(Cc3ccccc3)c(=O)n2N)c(OC)c1", "Potency": "inconclusive: 39.8 µM [inhibitor, partial curve, poor fit]"}
{"smiles": "CCC(C)[C@H]1CNC(=S)N1CCc1cc(C(F)(F)F)cc(C(F)(F)F)c1", "note": "(stereo partly specified)", "Potency": "inconclusive: 39.8 µM [inhibitor, partial curve, poor fit]"}
{"smiles": "O=C(CSc1nncs1)N(Cc1ccc(F)cc1)C12CC3CC(CC(C3)C1)C2", "Potency": "inconclusive: 141 µM [inhibitor, partial curve, poor fit]"}
{"smiles": "CC(=O)NCCC(=O)N(C)CC1CCN(CCc2cccc(C(F)(F)F)c2)CC1", "activity change, negative = inhibition": "inactive: -0.644%"}
{"smiles": "Brc1ccc(/C=N/Nc2nc3ccccc3o2)cc1", "Potency": "inconclusive: 25.1 µM [inhibitor, partial curve, poor fit]"}
{"smiles": "CC1CN(c2ccc(NC(=S)Nc3ccc(N4CC(C)OC(C)C4)cc3)cc2)CC(C)O1", "note": "(stereo unspecified)", "Potency": "inconclusive: 39.8 µM [inhibitor, partial curve, poor fit]"}
{"smiles": "CCCNC(=O)C1(C)CCCN(Cc2ccsc2)C1", "note": "(stereo unspecified)", "Potency": "inconclusive: 28.2 µM [inhibitor, single point]"}
{"smiles": "C[C@@H](NC(=O)c1cccn1C)c1onc(-c2cccnc2)c1C(=O)O", "activity change, negative = inhibition": "inactive: 4.92% [at 176 µM]"}
{"smiles": "CN1C2=C(C(=O)CC(C)(C)C2)C(c2ccc(O)cc2)C2=C1CC(C)(C)CC2=O", "Potency": "inconclusive: 56.2 µM [inhibitor, single point]"}
{"smiles": "C=CCN=C1NC(c2cccc(C(F)(F)F)c2)C(C(=O)OC)=C(C)N1Cc1ccccc1C(F)(F)F", "note": "(stereo unspecified)", "Potency": "inconclusive: 50.1 µM [inhibitor, partial curve, poor fit]"}
{"smiles": "CCn1ccnc1C1CCN(C(=O)Cn2cccnc2=O)CC1", "Potency": "inconclusive: 22.4 µM [inhibitor, full curve]"}
{"smiles": "O=S(=O)(c1ccccc1)c1nc(-c2ccccc2Cl)oc1NCCN1CCOCC1", "activity change, negative = inhibition": "inactive: -15.8%"}
{"smiles": "CC(=S)/C=C1\\Sc2ccccc2N1C", "Potency": "active: 10 µM"}
{"smiles": "O=c1c2c(nc3n1CCCCC3)sc1c(O)c(Br)ccc12", "Potency": "inconclusive: 100 µM [inhibitor, partial curve, poor fit]"}
{"smiles": "COc1ccc(-c2oc(=O)c3cc(OC)c(OC)cc3c2C#CCCO)cc1", "Potency": "inconclusive: 141 µM [inhibitor, single point]"}
{"smiles": "O=C(c1cccc(F)c1)N1CCC2(CC1)CCN(c1ccccc1)CC2", "Potency": "inconclusive: 28.2 µM [inhibitor, single point]"}
{"smiles": "Cc1cccc(Nc2nc(-c3ccc4c(c3)OCCO4)cs2)c1", "Potency": "inconclusive: 35.5 µM [inhibitor, partial curve, poor fit]"}
{"smiles": "N#Cc1c(NC(=O)c2ccc(Cn3cc(Br)cn3)o2)sc2c1CCCCC2", "activity change, negative = inhibition": "inactive: 180%"}
{"smiles": "COc1ccc2nc(C)cc(Nc3ccc(C(=O)O)cc3)c2c1", "activity change, negative = inhibition": "inactive: -10.2%"}
{"smiles": "CC1CCCN(C(=O)CCNS(=O)(=O)c2ccc(Br)cc2)C1", "note": "(stereo unspecified)", "Potency": "inconclusive: 89.1 µM [inhibitor, single point]"}
{"smiles": "CCOCCn1c(=O)n(Cc2cc(OC)ccn2)c2cc(C(=O)O)cnc21", "Potency": "inconclusive: 7.08 µM [inhibitor, full curve, poor fit]"}
{"smiles": "O=C(NCc1ccccc1)c1nnn2c1COC(c1ccc(Cl)cc1)C2", "note": "(stereo unspecified)", "activity change, negative = inhibition": "inactive: 1.1%"}
{"smiles": "Cc1ccc2nc(C)c(C(=O)N3CCN(S(=O)(=O)c4ccc(F)cc4)CC3)cc2c1", "Potency": "inconclusive: 35.5 µM [inhibitor, partial curve, poor fit]"}
{"smiles": "COc1cc2c(cc1OC)CN(C(=O)c1ccc(S(=O)(=O)N3CCCCC3)cc1)CC2", "Potency": "inconclusive: 15.8 µM [inhibitor, partial curve, poor fit]"}
{"smiles": "Cc1ccc(C2NC(=O)N(CC(=O)Nc3ccc(Br)c(C)c3)C3=C2C(=O)OC3)cc1", "note": "(stereo unspecified)", "Potency": "active: 8.91 µM"}
{"smiles": "CC(=C\\c1ccccc1)/C=C1/SC(=S)N(C(C(=O)O)C(C)C)C1=O", "note": "(stereo unspecified)", "Potency": "active: 44.7 µM"}
{"smiles": "O=C(Nc1cccc(C(F)(F)F)c1)O[C@@H]1CO[C@H]2[C@@H]1OC[C@@H]2n1nnnc1SC1CCCC1", "activity change, negative = inhibition": "inactive: 10.7%"}
{"smiles": "Cc1ccnc(NC(c2cccnc2)c2ccc3cccnc3c2O)c1", "note": "(stereo unspecified)", "Potency": "inconclusive: 44.7 µM [inhibitor, partial curve, poor fit]"}
{"smiles": "Cc1cc(/C=C(/C#N)c2nc3ccccc3[nH]2)c(C)n1-c1cc(C(=O)O)cc(C(=O)O)c1", "Potency": "inconclusive: 44.7 µM [inhibitor, partial curve, poor fit]"}
{"smiles": "O=c1oc(Cc2ccccc2)nc2ccccc12", "Potency": "inconclusive: 31.6 µM [inhibitor, single point]"}
{"smiles": "Cc1cccc(/C=N/NC(=O)c2ccc(NC(=O)c3ccc(F)cc3)cc2)n1", "activity change, negative = inhibition": "inactive: -12.3%"}
{"smiles": "CCc1cc(=O)oc2cc(OS(=O)(=O)c3sc(C(=O)OC)c(C)c3C(=O)OC)ccc12", "activity change, negative = inhibition": "inactive: 42.9%"}
{"smiles": "O=c1[nH]c2ccccc2c(O)c1-c1ccccc1", "activity change, negative = inhibition": "inactive: -0.4%"}
{"smiles": "CCc1nnc(NC(=O)Cc2cccs2)s1", "Potency": "inconclusive: 44.7 µM [inhibitor, partial curve, poor fit]"}
{"smiles": "O=C(CSc1nnnn1C1CCCCC1)NCc1cccc(C(=O)O)c1", "Potency": "inconclusive: 12.6 µM [inhibitor, full curve, poor fit]"}
{"smiles": "N#CC(C(=O)c1ccco1)c1ccccn1", "note": "(stereo unspecified)", "activity change, negative = inhibition": "inactive: 14.3%"}
{"smiles": "O=C(C1=C(O)C(=O)N(Cc2ccccc2)C1c1cccnc1)c1ccco1", "note": "(stereo unspecified)", "Potency": "inconclusive: 3.98 µM [inhibitor, full curve, poor fit]"}
{"smiles": "COc1ccc(/C=N/n2c(-c3cc(C)[nH]n3)n[nH]c2=S)cc1", "Potency": "inconclusive: 3.55 µM [inhibitor, full curve, poor fit]"}
{"smiles": "CCC(C(=O)N1CCN(c2ccc(F)cc2)CC1)n1cnc2ccccc2c1=O", "note": "(stereo unspecified)", "activity change, negative = inhibition": "inactive: -24.1%"}
{"smiles": "CCCn1c2c(c(O)c(C(=O)NCCCN(CC)CC)c1=O)CCCC2", "Potency": "inconclusive: 44.7 µM [inhibitor, partial curve, poor fit]"}
{"smiles": "COCCn1ncc(N2CCCC(CC(=O)NCCN3CCOCC3)C2)cc1=O", "note": "(stereo unspecified)", "Potency": "inconclusive: 5.01 µM [inhibitor, full curve]"}
{"smiles": "Cc1[nH]n(C(N)=S)c(=O)c1N=Nc1cc(-c2ccc(Br)cc2)[nH]n1", "Potency": "inconclusive: 5.62 µM [inhibitor, full curve, poor fit]"}
{"smiles": "COc1cccc(Nc2nc(-c3ccc4c(c3)CC(C)N4S(C)(=O)=O)cs2)c1", "note": "(stereo unspecified)", "Potency": "inconclusive: 7.94 µM [inhibitor, full curve, poor fit]"}
{"smiles": "COc1ccc(Cl)cc1NC(=O)Cn1cccc1-c1nc(-c2ccccc2)no1", "Potency": "inconclusive: 89.1 µM [inhibitor, single point]"}
{"smiles": "COc1cccc(N2CCN(C(=O)C3CCCN(c4ncnc5c4nc4n5CCCCC4)C3)CC2)c1", "note": "(stereo unspecified)", "activity change, negative = inhibition": "inactive: 7.51%"}
{"smiles": "CCN1CCCN(S(=O)(=O)c2cnn(CC)c2)CC12CCOCC2", "activity change, negative = inhibition": "inactive: 48.9%"}
{"smiles": "COc1ccccc1NC(=O)C1=C(C)Nc2nc(-c3ccccc3)nn2C1c1ccccn1", "note": "(stereo unspecified)", "Potency": "inconclusive: 50.1 µM [inhibitor, partial curve, poor fit]"}
{"smiles": "Cc1cc(OC(=O)c2cc([N+](=O)[O-])ccc2Cl)c([N+](=O)[O-])c(=O)[nH]1", "Potency": "inconclusive: 89.1 µM [inhibitor, partial curve, poor fit]"}
{"smiles": "CCOC(=O)Cc1c(C)nc2c(-c3ccc(Cl)cc3)c(C)nn2c1C", "activity change, negative = inhibition": "inactive: 3.43%"}
{"smiles": "COc1cc(OC)c2c(C)c(CC(=O)Nc3ccc4c(c3)OCCO4)c(=O)oc2c1", "Potency": "inconclusive: 50.1 µM [inhibitor, partial curve, poor fit]"}
{"smiles": "COc1ccc(CN(C(=O)c2ccc(C)cc2)c2cccc(N)c2)cc1", "Potency": "inconclusive: 126 µM [inhibitor, partial curve, poor fit]"}
{"smiles": "COc1ccc(C(=O)N[C@H](C)c2onc(-c3ccc(F)cc3)c2C(=O)O)cc1", "activity change, negative = inhibition": "inactive: 0.232% [at 176 µM]"}
{"smiles": "CC(C)c1nc2c(c(-c3ccc(O)cc3)n1)CCN(Cc1ccc(OC(F)(F)F)cc1)CC2", "Potency": "inconclusive: 50.1 µM [inhibitor, partial curve]"}
